# According to PubChem BioAssay AID330 (DTP/NCI, 2004):
# The list does not hold the whole screen: it gathers tests that were run many times, whatever their T/C, doses with no T/C, and many T/C values between a quarter and a half above the control. Other doses and runs of a compound stand elsewhere. T/C gives the treated animals as a percentage of the vehicle group. Some entries give survivors of the animals treated and no T/C: the source holds a T/C of zero for them, seemingly a mark for toxic or unscored doses. Some doses without a T/C left all or most animals alive at the check, yet need not have been tolerated: the source hardly ever lists a survival T/C far under the control, and the zero likely stands for such cases as well. Counts of survivors are from the toxicity check (mostly the fifth day) where no day follows; animals may have died later. Schedule codes are those of the source, taken here to give the interval after Q, in days (D) or hours (H), and the number of doses after X. Some structures stand for samples that the source files as different forms (salt, stereo form or complex); doses refer to the form tested. Where survival is the endpoint, this PubChem deposit counts one and a half times the control or more as active, and values a quarter to a half above the control carry no call in these data; other NCI protocols may use other cut-offs. Some doses were run more than once; the values are given in rising order. Some T/C values carry the count of animals alive at the toxicity check (mostly the fifth day); where none is given, no animal had died by that day.
# Tested on: P388 leukemia ip, CD2F1 mice, survival T/C
# Test: NCI In Vivo Anticancer Drug Screen. Data for tumor model P388 Leukemia (intraperitoneal) in CD2F1 (CDF1) mice
# Conditions: T/C endpoint: median survival time, higher T/C = longer survival
smiles,measurement,setting,value
O=C1c2ccccc2C(=O)c2c(NCCNCCO)ccc(NCCNCCO)c21,T/C,"dose: 0.06 mg/kg/injection, schedule: Q04DX003 (ip), vehicle: saline",135 % of control
same,T/C,"dose: 0.25 mg/kg/injection, schedule: Q01DX009 (ip), vehicle: Klucel (hydroxypropylcellulose) (HPC)",146 % of control
same,T/C,"dose: 0.25 mg/kg/injection, schedule: Q01DX009 (ip), vehicle: water",144 % of control
same,T/C,"dose: 0.5 mg/kg/injection, schedule: Q01DX009 (ip), vehicle: Klucel (hydroxypropylcellulose) (HPC)",146 % of control [5 of 6 alive]
same,T/C,"dose: 2.0 mg/kg/injection, schedule: Q01DX009 (ip), vehicle: other",147 % of control
same,T/C,"dose: 2.0 mg/kg/injection, schedule: Q01DX009 (ip), vehicle: water, evaluated on day 30","163, 169, 190, 211 % of control"
same,T/C,"dose: 2.0 mg/kg/injection, schedule: Q01DX009 (ip), vehicle: water, evaluated on day 60",156 and 168 % of control
same,T/C,"dose: 2.0 mg/kg/injection, schedule: Q04DX003 (ip), vehicle: saline",137 % of control
same,T/C,"dose: 2.5 mg/kg/injection, schedule: Q01DX009 (ip), vehicle: saline, evaluated on day 30",193 % of control
same,T/C,"dose: 2.5 mg/kg/injection, schedule: Q01DX009 (ip), vehicle: saline, evaluated on day 35",220 % of control
same,T/C,"dose: 2.5 mg/kg/injection, schedule: Q01DX009 (ip), vehicle: saline, evaluated on day 45",223 % of control
same,T/C,"dose: 2.5 mg/kg/injection, schedule: Q01DX009 (ip), vehicle: saline, evaluated on day 50",198 % of control
same,T/C,"dose: 2.5 mg/kg/injection, schedule: Q01DX009 (ip), vehicle: water","144, 154, 158, 183, 185, 203, 238 % of control"
same,T/C,"dose: 4.0 mg/kg/injection, schedule: Q01DX009 (ip), vehicle: saline with Tween-80, evaluated on day 30","183, 270, 275 % of control"
same,T/C,"dose: 4.0 mg/kg/injection, schedule: Q01DX009 (ip), vehicle: saline with Tween-80, evaluated on day 35",212 % of control
same,T/C,"dose: 4.0 mg/kg/injection, schedule: Q01DX009 (ip), vehicle: water, evaluated on day 30","158, 163, 175, 184, 199, 200 % of control"
same,T/C,"dose: 4.0 mg/kg/injection, schedule: Q01DX009 (ip), vehicle: water, evaluated on day 60",94 and 208 % of control
same,T/C,"dose: 4.0 mg/kg/injection, schedule: Q04DX003 (ip), vehicle: Klucel (hydroxypropylcellulose) (HPC)",137 % of control
same,T/C,"dose: 4.0 mg/kg/injection, schedule: Q04DX003 (ip), vehicle: saline",144 % of control
same,T/C,"dose: 5.0 mg/kg/injection, schedule: Q01DX009 (ip), vehicle: saline, evaluated on day 30",170 % of control
same,T/C,"dose: 5.0 mg/kg/injection, schedule: Q01DX009 (ip), vehicle: saline, evaluated on day 35",321 % of control
same,T/C,"dose: 5.0 mg/kg/injection, schedule: Q01DX009 (ip), vehicle: saline, evaluated on day 45",274 % of control
same,T/C,"dose: 5.0 mg/kg/injection, schedule: Q01DX009 (ip), vehicle: saline, evaluated on day 50",218 % of control
same,T/C,"dose: 5.0 mg/kg/injection, schedule: Q01DX009 (ip), vehicle: water","150, 152, 157, 162, 174, 187, 192, 199, 213 % of control"
same,T/C,"dose: 6.25 mg/kg/injection, schedule: Q01DX005 (iv), vehicle: saline",133 % of control
same,T/C,"dose: 6.48 mg/kg/injection, schedule: Q01DX009 (sc), vehicle: saline",136 % of control
same,T/C,"dose: 7.78 mg/kg/injection, schedule: Q01DX005 (iv), vehicle: saline",131 % of control
same,T/C,"dose: 8.0 mg/kg/injection, schedule: Q01DX009 (ip), vehicle: saline with Tween-80, evaluated on day 30","190, 212, 276 % of control"
same,T/C,"dose: 8.0 mg/kg/injection, schedule: Q01DX009 (ip), vehicle: saline with Tween-80, evaluated on day 35",266 % of control
same,T/C,"dose: 8.0 mg/kg/injection, schedule: Q01DX009 (ip), vehicle: water, evaluated on day 30","185, 196, 198, 200, 202, 207, 213, 214 % of control"
same,T/C,"dose: 8.0 mg/kg/injection, schedule: Q01DX009 (ip), vehicle: water, evaluated on day 60",234 % of control [9 of 10 alive]
same,survivor count,"dose: 8.0 mg/kg/injection, schedule: Q01DX009 (ip), vehicle: water",10 of 10
same,T/C,"dose: 8.0 mg/kg/injection, schedule: Q04DX003 (ip), vehicle: saline",145 % of control
same,T/C,"dose: 10.0 mg/kg/injection, schedule: Q01DX005 (iv), vehicle: saline",131 % of control
same,T/C,"dose: 10.0 mg/kg/injection, schedule: Q01DX009 (ip), vehicle: saline, evaluated on day 10",103 % of control [2 of 6 alive]
same,T/C,"dose: 10.0 mg/kg/injection, schedule: Q01DX009 (ip), vehicle: saline, evaluated on day 30",117 % of control
same,T/C,"dose: 10.0 mg/kg/injection, schedule: Q01DX009 (ip), vehicle: saline, evaluated on day 35",321 % of control
same,T/C,"dose: 10.0 mg/kg/injection, schedule: Q01DX009 (ip), vehicle: saline, evaluated on day 45",271 % of control
same,T/C,"dose: 10.0 mg/kg/injection, schedule: Q01DX009 (ip), vehicle: saline, evaluated on day 50",333 % of control [5 of 6 alive]
same,T/C,"dose: 10.0 mg/kg/injection, schedule: Q01DX009 (ip), vehicle: water","158, 168, 174, 177, 181, 189, 203, 208, 247 % of control"
same,T/C,"dose: 10.4 mg/kg/injection, schedule: Q04DX003 (iv), vehicle: saline",127 % of control
same,T/C,"dose: 12.5 mg/kg/injection, schedule: Q01DX005 (iv), vehicle: saline",133 % of control
same,T/C,"dose: 13.0 mg/kg/injection, schedule: Q04DX003 (ip), vehicle: saline",141 % of control
same,T/C,"dose: 16.0 mg/kg/injection, schedule: Q01DX009 (ip), vehicle: Klucel (hydroxypropylcellulose) (HPC)",129 % of control
same,T/C,"dose: 16.0 mg/kg/injection, schedule: Q01DX009 (ip), vehicle: saline with Tween-80, evaluated on day 30","91, 259, 275 % of control"
same,T/C,"dose: 16.0 mg/kg/injection, schedule: Q01DX009 (ip), vehicle: saline with Tween-80, evaluated on day 35",332 % of control
same,T/C,"dose: 16.0 mg/kg/injection, schedule: Q01DX009 (ip), vehicle: water, evaluated on day 30","141, 205, 217, 220, 223, 230, 265, 272 % of control"
same,T/C,"dose: 16.0 mg/kg/injection, schedule: Q01DX009 (ip), vehicle: water, evaluated on day 60",153 and 272 % of control
same,T/C,"dose: 16.0 mg/kg/injection, schedule: Q04DX003 (ip), vehicle: saline",130 and 148 % of control
same,T/C,"dose: 17.3 mg/kg/injection, schedule: Q04DX003 (iv), vehicle: saline, evaluated on day 45",133 % of control
same,T/C,"dose: 17.3 mg/kg/injection, schedule: Q04DX003 (iv), vehicle: saline, evaluated on day 60",137 % of control
same,survivor count,"dose: 20.0 mg/kg/injection, schedule: Q01DX009 (ip), vehicle: distilled water + Tween-80",6 of 6
same,T/C,"dose: 20.0 mg/kg/injection, schedule: Q01DX009 (ip), vehicle: saline, evaluated on day 10",132 % of control
same,T/C,"dose: 20.0 mg/kg/injection, schedule: Q01DX009 (ip), vehicle: saline, evaluated on day 30",86 % of control
same,T/C,"dose: 20.0 mg/kg/injection, schedule: Q01DX009 (ip), vehicle: saline, evaluated on day 35",321 % of control
same,T/C,"dose: 20.0 mg/kg/injection, schedule: Q01DX009 (ip), vehicle: saline, evaluated on day 45",203 % of control
same,T/C,"dose: 20.0 mg/kg/injection, schedule: Q01DX009 (ip), vehicle: saline, evaluated on day 50",450 % of control
same,T/C,"dose: 20.0 mg/kg/injection, schedule: Q01DX009 (ip), vehicle: water","89, 166, 204, 211, 234, 238, 272, 277, 291 % of control"
same,T/C,"dose: 20.0 mg/kg/injection, schedule: Q04DX003 (iv), vehicle: saline",127 % of control
same,T/C,"dose: 21.6 mg/kg/injection, schedule: Q01DX001 (iv), vehicle: saline",127 % of control
same,T/C,"dose: 21.6 mg/kg/injection, schedule: Q04DX003 (ip), vehicle: saline","152, 195, 227, 259 % of control"
same,T/C,"dose: 24.0 mg/kg/injection, schedule: Q04DX003 (ip), vehicle: saline",127 % of control
same,T/C,"dose: 25.0 mg/kg/injection, schedule: Q04DX003 (ip), vehicle: Klucel (hydroxypropylcellulose) (HPC)",137 % of control [survivors not given]
same,T/C,"dose: 28.8 mg/kg/injection, schedule: Q04DX003 (iv), vehicle: saline, evaluated on day 45",140 % of control
same,T/C,"dose: 28.8 mg/kg/injection, schedule: Q04DX003 (iv), vehicle: saline, evaluated on day 60",149 % of control
